PubChem BioAssay AID1224826, NIAID | 2016
This is a random part of about 17,000 deposited reagents. In the full data, about 1,110 (6.6%) were called active. 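Active means lowered or raised reporter signal; replicate intensities are raw and not normalised per plate.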 The numbers tell different reagents against one gene apart. A reagent listed more than once was tested more than once; the source does not tell the runs apart.

- Assay: 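Genes that change LPS-induced Tnf promoter activity in mouse macrophages when knocked down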 (primary screen)
- System: RAW264.7 G9 macrophages from mouse bearing reporters for p65 (GFP) and the Tnf promoter (mCherry)
- Knock-down reagent: siRNA pool against mouse genes, 100 nM
- Duration: 16 h of LPS stimulation, after 2 days of siRNA transfection
- Treatment: bacterial lipopolysaccharide (Salmonella minnesota R595), 10 ng/ml
- Detection: 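Imaged Tnf reporter mCherry in nuclei, minus background, normalised per plate to the median and expressed as robust z-scores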
- Scale: Tnf reporter robust z-score: higher = stronger Tnf promoter reporter signal after LPS; Tnf reporter intensity: higher = stronger Tnf promoter reporter signal
- Active means: 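a well counts as active at a score of -1.3 or below (Tlr4 knock-down control median) or above 3 (raised signal); controls and wells holding fewer than 50 cells are excluded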
- Meaning of the calls: active = Tnf reporter clearly lowered or raised; inactive = no clear change in Tnf reporter

gene knocked down | reagent | Tnf reporter robust z-score | fewer than 50 cells in well | Tnf reporter intensity, replicate 1 | Tnf reporter intensity, replicate 2 | outcome
Rexo4 (GeneID 227656) | 1 | 1.34 | enough cells in well | 379 | 223 | inactive
Mia (GeneID 12587) | 1 | 0.02 | enough cells in well | 262 | 209 | inactive
Bik (GeneID 12124) | 1 | 0.21 | enough cells in well | 139 | 196 | inactive
D630029K05Rik (GeneID 103175) | 1 | -0.36 | enough cells in well | 169 | 139 | inactive
Slc1a2 (GeneID 20511) | 1 | -0.7 | enough cells in well | 78 | 76.3 | inactive
Mob1a (GeneID 232157) | 1 | 1.73 | enough cells in well | 284 | 210 | inactive
Thbs1 (GeneID 21825) | 1 | -0.17 | enough cells in well | 241 | 113 | inactive
Nfkbil1 (GeneID 18038) | 1 | -0.22 | enough cells in well | 236 | 158 | inactive
Nme8 (GeneID 73412) | 1 | – | fewer than 50 cells per well; well left out of calls | 155 | 87.7 | inactive
Gm4793 (GeneID 215714) | 1 | -1.57 | enough cells in well | 98 | 61.5 | active
C130023O10Rik (GeneID 320230) | 1 | -0.23 | enough cells in well | 99.2 | 157 | inactive
Dstn (GeneID 56431) | 1 | -0.68 | enough cells in well | 188 | 149 | inactive
Trem2 (GeneID 83433) | 1 | -0.46 | enough cells in well | 180 | 210 | inactive
Fryl (GeneID 72313) | 1 | -0.27 | enough cells in well | 171 | 104 | inactive
Fryl (GeneID 72313) | 2 | -0.06 | enough cells in well | 235 | 71.9 | inactive
Spag6l (GeneID 50525) | 1 | – | fewer than 50 cells per well; well left out of calls | 109 | 134 | inactive
Col6a2 (GeneID 12834) | 1 | 0.62 | enough cells in well | 279 | 270 | inactive
Cripto (GeneID 21667) | 1 | -0.76 | enough cells in well | 196 | 85.4 | inactive
Or5p52 (GeneID 258770) | 1 | -1.96 | enough cells in well | 37 | 36.4 | active
C230013L11Rik (GeneID 100504186) | 1 | 2.16 | enough cells in well | 262 | 287 | inactive
Ctdp1 (GeneID 67655) | 1 | -0.09 | enough cells in well | 217 | 208 | inactive
Arf6 (GeneID 11845) | 1 | -0.39 | enough cells in well | 186 | 101 | inactive
Dennd2a (GeneID 209773) | 1 | 1.68 | enough cells in well | 331 | 315 | inactive

Active calls, of those listed so far:
gene knocked down | reagent | Tnf reporter robust z-score | fewer than 50 cells in well | Tnf reporter intensity, replicate 1 | Tnf reporter intensity, replicate 2 | outcome
Gm4793 (GeneID 215714) | 1 | -1.57 | enough cells in well | 98 | 61.5 | active
Or5p52 (GeneID 258770) | 1 | -1.96 | enough cells in well | 37 | 36.4 | active

Next reagents follow.
gene knocked down | reagent | Tnf reporter robust z-score | fewer than 50 cells in well | Tnf reporter intensity, replicate 1 | Tnf reporter intensity, replicate 2 | outcome
Numbl (GeneID 18223) | 1 | -1.56 | enough cells in well | 98.5 | 63.1 | active
Cacna2d2 (GeneID 56808) | 1 | -1.27 | enough cells in well | 93.7 | 102 | inactive
Limd2 (GeneID 67803) | 1 | 3.43 | enough cells in well | 437 | 202 | active
Lrrc7 (GeneID 242274) | 1 | -0.63 | enough cells in well | 129 | 137 | inactive
Itpa (GeneID 16434) | 1 | -1.12 | enough cells in well | 142 | 99.2 | inactive
Barhl1 (GeneID 54422) | 1 | -0.48 | enough cells in well | 171 | 177 | inactive
Baz1b (GeneID 22385) | 1 | -0.54 | enough cells in well | 113 | 141 | inactive
Gprasp1 (GeneID 67298) | 1 | – | fewer than 50 cells per well; well left out of calls | 192 | 69.9 | inactive
Fmr1 (GeneID 14265) | 1 | -0.65 | enough cells in well | 230 | 158 | inactive
Tbce (GeneID 70430) | 1 | 0.35 | enough cells in well | 280 | 138 | inactive
Or10g6 (GeneID 258283) | 1 | 1.33 | enough cells in well | 171 | 233 | inactive
Or4c10 (GeneID 258980) | 1 | -1.37 | enough cells in well | 103 | 50.3 | active
Pigc (GeneID 67292) | 1 | 0.42 | enough cells in well | 136 | 182 | inactive
Fam91a1 (GeneID 210998) | 1 | -1.55 | enough cells in well | 108 | 88.2 | active
Or4l15 (GeneID 258485) | 1 | – | fewer than 50 cells per well; well left out of calls | 246 | 189 | inactive
Cndp1 (GeneID 338403) | 1 | -0.64 | enough cells in well | 104 | 173 | inactive
Sap30 (GeneID 60406) | 1 | 0.18 | enough cells in well | 321 | 223 | inactive
Slc67a2 (GeneID 211798) | 1 | 0.89 | enough cells in well | 267 | 70.3 | inactive
Zfp212 (GeneID 232784) | 1 | – | fewer than 50 cells per well; well left out of calls | 47.9 | 40.7 | inactive
Clec5a (GeneID 23845) | 1 | -0.62 | enough cells in well | 104 | 175 | inactive
Cdk5 (GeneID 12568) | 1 | 1.34 | enough cells in well | 312 | 206 | inactive
Polr2d (GeneID 69241) | 1 | -1.7 | enough cells in well | 68.4 | 65.8 | active
Gpr141b (GeneID 319293) | 1 | -0.58 | enough cells in well | 161 | 97.3 | inactive
Pnpla7 (GeneID 241274) | 1 | -0.3 | enough cells in well | 172 | 202 | inactive
Chchd1 (GeneID 66121) | 1 | 1.07 | enough cells in well | 363 | 103 | inactive
Hoxa4 (GeneID 15401) | 1 | -1.17 | enough cells in well | 128 | 127 | inactive
Hpvc-ps (retired record) (GeneID 15456) | 1 | -1.12 | enough cells in well | 187 | 79.5 | inactive
Edc4 (GeneID 234699) | 1 | 2.06 | enough cells in well | 321 | 385 | inactive
Magi3 (GeneID 99470) | 1 | -1.15 | enough cells in well | 116 | 93 | inactive
Magi3 (GeneID 99470) | 1 | – | fewer than 50 cells per well; well left out of calls | 132 | 57.1 | inactive
Ttll6 (GeneID 237930) | 1 | – | fewer than 50 cells per well; well left out of calls | 252 | 67.9 | inactive
Hoxb4 (GeneID 15412) | 1 | -0.65 | enough cells in well | 160 | 150 | inactive
Ppp2r5e (GeneID 26932) | 1 | -0.23 | enough cells in well | 211 | 191 | inactive
Pih1d1 (GeneID 68845) | 1 | 1.44 | enough cells in well | 333 | 130 | inactive
Helz2 (GeneID 229003) | 1 | – | fewer than 50 cells per well; well left out of calls | 83.2 | 134 | inactive
